From the supplement of paper PMC10849652
Some of the results follow.

Protein sequences, listed by entry. Tags and fused reporters are not part of them. Lines headed by an entry give the natural chain unless they say otherwise; changes in a name come on top.
UniProt Q8IWA4: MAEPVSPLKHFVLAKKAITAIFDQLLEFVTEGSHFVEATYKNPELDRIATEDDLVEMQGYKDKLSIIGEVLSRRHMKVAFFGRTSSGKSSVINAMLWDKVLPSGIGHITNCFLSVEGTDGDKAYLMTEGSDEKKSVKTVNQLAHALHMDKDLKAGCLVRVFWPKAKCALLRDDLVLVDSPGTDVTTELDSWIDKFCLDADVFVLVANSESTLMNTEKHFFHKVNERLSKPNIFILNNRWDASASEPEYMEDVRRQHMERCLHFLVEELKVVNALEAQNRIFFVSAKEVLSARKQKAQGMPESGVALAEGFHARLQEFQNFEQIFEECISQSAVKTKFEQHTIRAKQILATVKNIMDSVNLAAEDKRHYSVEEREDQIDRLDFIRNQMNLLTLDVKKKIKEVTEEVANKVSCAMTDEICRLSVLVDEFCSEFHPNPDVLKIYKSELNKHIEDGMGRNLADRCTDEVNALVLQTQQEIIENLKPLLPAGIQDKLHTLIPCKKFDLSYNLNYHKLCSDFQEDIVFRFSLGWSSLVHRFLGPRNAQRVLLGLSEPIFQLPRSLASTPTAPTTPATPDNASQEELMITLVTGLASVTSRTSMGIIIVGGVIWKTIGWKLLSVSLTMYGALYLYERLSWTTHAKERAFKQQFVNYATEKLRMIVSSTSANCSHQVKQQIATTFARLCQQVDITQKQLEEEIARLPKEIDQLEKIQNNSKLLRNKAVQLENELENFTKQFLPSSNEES
UniProt Q96RN5: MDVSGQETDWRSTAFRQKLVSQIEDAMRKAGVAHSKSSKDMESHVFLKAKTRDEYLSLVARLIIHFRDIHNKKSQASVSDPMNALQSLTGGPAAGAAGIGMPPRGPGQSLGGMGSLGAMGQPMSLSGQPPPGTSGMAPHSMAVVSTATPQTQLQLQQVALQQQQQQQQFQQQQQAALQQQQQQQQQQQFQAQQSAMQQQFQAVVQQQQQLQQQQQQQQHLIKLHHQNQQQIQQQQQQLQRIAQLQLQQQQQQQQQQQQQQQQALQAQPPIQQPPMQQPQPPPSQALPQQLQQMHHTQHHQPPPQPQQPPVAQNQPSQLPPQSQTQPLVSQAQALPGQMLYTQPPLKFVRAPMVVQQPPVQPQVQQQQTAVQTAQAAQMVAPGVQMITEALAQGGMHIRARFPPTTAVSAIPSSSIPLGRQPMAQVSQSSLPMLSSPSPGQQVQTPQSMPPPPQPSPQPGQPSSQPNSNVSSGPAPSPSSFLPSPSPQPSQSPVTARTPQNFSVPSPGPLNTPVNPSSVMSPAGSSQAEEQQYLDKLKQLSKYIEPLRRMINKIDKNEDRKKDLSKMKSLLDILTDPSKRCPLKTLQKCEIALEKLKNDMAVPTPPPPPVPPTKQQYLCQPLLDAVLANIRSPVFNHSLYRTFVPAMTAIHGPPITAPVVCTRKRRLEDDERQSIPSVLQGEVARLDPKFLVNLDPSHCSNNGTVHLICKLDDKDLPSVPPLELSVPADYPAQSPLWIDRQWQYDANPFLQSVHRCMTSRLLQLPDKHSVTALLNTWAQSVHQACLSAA
UniProt P48163: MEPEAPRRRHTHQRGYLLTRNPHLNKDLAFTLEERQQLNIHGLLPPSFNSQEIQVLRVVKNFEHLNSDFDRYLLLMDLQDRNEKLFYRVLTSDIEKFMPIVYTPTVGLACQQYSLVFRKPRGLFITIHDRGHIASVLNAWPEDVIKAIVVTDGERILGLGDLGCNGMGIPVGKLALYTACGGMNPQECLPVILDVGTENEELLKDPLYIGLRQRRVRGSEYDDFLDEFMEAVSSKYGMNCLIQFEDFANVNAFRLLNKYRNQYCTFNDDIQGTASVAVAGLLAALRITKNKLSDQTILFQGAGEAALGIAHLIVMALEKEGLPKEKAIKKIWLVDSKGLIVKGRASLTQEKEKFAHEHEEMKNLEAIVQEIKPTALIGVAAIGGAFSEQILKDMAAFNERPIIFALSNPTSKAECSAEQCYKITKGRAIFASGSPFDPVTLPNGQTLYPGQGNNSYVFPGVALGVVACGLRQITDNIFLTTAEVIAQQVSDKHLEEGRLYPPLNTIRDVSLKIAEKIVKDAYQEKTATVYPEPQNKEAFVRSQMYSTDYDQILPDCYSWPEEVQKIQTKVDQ
UniProt Q02078: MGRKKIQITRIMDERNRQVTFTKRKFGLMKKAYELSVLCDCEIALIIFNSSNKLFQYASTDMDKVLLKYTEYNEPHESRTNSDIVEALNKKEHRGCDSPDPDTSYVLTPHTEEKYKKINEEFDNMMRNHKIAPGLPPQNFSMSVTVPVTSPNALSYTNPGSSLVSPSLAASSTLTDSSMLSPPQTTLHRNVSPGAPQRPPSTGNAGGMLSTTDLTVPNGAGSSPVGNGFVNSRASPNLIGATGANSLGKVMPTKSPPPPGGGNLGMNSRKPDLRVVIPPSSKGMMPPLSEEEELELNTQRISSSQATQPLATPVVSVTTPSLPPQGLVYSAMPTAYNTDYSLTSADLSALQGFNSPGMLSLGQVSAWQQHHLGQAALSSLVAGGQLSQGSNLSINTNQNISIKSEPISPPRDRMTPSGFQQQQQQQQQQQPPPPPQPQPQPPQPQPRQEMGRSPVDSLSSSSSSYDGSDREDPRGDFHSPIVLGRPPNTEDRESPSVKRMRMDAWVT
UniProt P40926: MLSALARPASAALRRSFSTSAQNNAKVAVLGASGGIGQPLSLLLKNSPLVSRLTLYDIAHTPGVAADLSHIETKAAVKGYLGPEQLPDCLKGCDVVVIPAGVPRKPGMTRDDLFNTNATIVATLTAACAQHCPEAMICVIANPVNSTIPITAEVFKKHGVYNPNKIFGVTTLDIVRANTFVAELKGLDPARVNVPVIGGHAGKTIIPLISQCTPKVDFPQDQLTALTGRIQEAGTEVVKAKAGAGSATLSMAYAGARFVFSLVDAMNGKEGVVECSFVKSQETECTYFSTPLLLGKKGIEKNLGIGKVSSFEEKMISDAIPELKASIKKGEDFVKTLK
UniProt Q96HR3: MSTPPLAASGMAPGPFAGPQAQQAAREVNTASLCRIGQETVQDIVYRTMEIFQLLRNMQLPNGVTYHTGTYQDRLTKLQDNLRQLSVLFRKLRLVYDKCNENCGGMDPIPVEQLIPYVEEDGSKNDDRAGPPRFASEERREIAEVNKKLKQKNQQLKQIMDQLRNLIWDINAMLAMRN
UniProt Q9NS73: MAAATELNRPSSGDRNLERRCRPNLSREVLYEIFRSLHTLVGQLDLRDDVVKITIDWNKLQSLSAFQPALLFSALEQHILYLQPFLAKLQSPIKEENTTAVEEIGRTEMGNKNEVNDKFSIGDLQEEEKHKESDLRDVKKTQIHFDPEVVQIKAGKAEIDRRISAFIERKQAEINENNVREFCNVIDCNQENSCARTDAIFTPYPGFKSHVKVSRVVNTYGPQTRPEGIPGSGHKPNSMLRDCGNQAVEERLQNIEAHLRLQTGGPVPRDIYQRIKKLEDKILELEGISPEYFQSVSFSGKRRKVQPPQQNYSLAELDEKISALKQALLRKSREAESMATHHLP
UniProt Q86V88: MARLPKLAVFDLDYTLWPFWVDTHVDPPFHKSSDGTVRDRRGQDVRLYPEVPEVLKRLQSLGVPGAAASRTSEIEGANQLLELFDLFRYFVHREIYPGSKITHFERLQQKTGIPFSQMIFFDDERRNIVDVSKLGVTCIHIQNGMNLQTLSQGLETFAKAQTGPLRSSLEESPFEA
UniProt Q9NPJ6: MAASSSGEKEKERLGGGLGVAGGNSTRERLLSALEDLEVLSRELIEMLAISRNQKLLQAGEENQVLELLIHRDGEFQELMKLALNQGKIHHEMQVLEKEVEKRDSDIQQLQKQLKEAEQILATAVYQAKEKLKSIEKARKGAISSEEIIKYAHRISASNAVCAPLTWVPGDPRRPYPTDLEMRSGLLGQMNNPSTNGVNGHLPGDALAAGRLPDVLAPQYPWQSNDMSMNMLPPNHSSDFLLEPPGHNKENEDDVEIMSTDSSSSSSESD
UniProt Q6P2C8: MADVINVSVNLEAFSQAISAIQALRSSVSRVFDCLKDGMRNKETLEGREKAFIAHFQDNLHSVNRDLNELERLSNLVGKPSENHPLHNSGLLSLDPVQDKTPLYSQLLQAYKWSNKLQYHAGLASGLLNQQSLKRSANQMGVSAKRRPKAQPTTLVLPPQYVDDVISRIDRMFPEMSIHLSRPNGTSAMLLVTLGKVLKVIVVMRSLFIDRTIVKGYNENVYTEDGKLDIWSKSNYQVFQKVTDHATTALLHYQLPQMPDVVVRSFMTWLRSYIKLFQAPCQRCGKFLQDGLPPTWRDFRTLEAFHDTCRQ
UniProt Q07820, whole entry, looked up: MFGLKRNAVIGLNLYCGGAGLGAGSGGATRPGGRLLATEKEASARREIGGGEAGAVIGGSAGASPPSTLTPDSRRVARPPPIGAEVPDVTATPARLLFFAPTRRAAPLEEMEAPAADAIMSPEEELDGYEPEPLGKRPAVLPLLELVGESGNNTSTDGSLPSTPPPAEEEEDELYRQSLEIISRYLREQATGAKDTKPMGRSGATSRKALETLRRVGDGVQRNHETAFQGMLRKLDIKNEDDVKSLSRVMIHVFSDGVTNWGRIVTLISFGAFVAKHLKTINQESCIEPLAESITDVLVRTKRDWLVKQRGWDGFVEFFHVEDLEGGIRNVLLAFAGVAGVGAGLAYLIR
UniProt Q9BTT4: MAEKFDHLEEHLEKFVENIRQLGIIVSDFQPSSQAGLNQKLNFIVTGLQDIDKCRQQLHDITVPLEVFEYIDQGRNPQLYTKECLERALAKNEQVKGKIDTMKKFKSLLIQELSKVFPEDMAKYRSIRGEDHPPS
UniProt Q9H3U5: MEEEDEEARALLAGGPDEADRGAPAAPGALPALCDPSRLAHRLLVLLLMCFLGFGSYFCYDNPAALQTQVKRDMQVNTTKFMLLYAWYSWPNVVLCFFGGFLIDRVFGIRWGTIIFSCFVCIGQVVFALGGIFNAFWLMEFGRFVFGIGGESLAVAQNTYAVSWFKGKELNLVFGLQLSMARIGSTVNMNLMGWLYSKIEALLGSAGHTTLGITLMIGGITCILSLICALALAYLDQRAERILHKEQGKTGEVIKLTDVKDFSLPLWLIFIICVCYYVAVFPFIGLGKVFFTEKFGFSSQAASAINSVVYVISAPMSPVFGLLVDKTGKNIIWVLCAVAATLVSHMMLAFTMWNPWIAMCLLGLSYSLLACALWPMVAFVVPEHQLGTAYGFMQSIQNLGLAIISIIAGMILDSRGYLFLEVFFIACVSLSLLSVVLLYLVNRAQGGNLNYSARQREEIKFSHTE
UniProt Q9H944: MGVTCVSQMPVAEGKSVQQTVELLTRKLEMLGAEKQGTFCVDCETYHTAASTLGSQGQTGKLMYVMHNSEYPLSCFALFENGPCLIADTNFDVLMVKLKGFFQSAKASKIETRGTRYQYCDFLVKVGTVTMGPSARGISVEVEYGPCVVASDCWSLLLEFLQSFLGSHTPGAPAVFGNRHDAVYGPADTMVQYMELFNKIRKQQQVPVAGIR
UniProt Q16798: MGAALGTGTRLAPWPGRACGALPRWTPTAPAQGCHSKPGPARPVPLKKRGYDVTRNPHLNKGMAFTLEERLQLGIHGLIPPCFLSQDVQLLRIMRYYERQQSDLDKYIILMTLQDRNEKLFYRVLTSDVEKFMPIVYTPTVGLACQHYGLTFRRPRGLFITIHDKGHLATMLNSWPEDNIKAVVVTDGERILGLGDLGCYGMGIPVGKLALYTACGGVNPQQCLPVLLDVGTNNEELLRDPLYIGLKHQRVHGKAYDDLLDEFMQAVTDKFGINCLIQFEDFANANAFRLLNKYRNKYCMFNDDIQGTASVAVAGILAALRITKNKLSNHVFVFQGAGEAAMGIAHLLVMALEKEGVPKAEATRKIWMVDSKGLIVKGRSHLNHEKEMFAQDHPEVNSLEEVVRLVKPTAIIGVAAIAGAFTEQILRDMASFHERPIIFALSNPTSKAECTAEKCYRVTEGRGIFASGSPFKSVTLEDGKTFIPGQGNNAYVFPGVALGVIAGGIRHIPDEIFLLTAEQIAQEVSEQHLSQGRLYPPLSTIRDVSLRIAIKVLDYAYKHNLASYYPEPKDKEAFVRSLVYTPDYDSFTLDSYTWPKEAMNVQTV

Tests used:
Test in all cases: log2 fold change, soluble protein after heating vs DMSO (PISA); higher = thermal stabilisation; K562 lysate, 10 uM; active = over 0.2 and 3.5 SD of the protein, either way, in both replicates (recomputed)
vemurafenib = compound: CCCS(=O)(=O)Nc1ccc(F)c(C(=O)c2c[nH]c3ncc(-c4ccc(Cl)cc4)cc23)c1F [vemurafenib]
How it was run: (§1)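 Following dounce homogenisation of K562 pellets in PBS pH 7.4 with 1 mM MgCl2, crude extract at 1 mg/mL protein was incubated for 30 min with 10 μM compound. Aliquots were then heated for 3 min over 48°C-58°C and pooled, NP-40 was added to 0.5% at 4°C, and soluble protein was recovered as the supernatant at 21,000xg for 90 min. Channel-sum-equalised TMTpro 16plex LC-MS/MS quantified this protein. Each value, from duplicates, is a log-two fold change in thermal stability relative to solvent controls.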

[1] = compound: CCCS(=O)(=O)Nc1ccc(F)c(C(=O)c2c[nH]c3ncc(Cl)cc23)c1F
How it was run: as §1

barasertib = compound: CCN(CCCOc1ccc2c(Nc3cc(CC(=O)Nc4cccc(F)c4)[nH]n3)ncnc2c1)CCOP(=O)(O)O [barasertib]
How it was run: as §1

[2] = compound: CC[C@@H]1C(=O)N(C)c2cnc(Nc3ccc(C(=O)NC4CCN(C)CC4)cc3OC)nc2N1C1CCCC1
How it was run: as §1

volasertib = compound: CC[C@@H]1C(=O)N(C)c2cnc(Nc3ccc(C(=O)N[C@H]4CC[C@H](N5CCN(CC6CC6)CC5)CC4)cc3OC)nc2N1C(C)C [volasertib]
How it was run: as §1

[3] = compound: CCn1c(C(=O)N(C2CC2)C2CC2)cc2c3c(ncn3C)c(Nc3cc(C)n(C)n3)nc21
How it was run: as §1

[4] = compound: CCn1cc(-c2ccnc3[nH]c(-c4cccc(CN(C)C)c4)cc23)c(-c2ccc(NC(=O)N(C)C)cc2)n1
How it was run: as §1

[5] = compound: CN1CCC(CNc2ccc3ncc(-c4cccc(OC(F)(F)F)c4)n3n2)CC1
How it was run: as §1

saracatinib = compound: CN1CCN(CCOc2cc(OC3CCOCC3)c3c(Nc4c(Cl)ccc5c4OCO5)ncnc3c2)CC1 [saracatinib]
How it was run: as §1

sotrastaurin = compound: CN1CCN(c2nc(C3=C(c4c[nH]c5ccccc45)C(=O)NC3=O)c3ccccc3n2)CC1 [sotrastaurin]
How it was run: as §1

alvocidib = compound: CN1CC[C@H](c2c(O)cc(O)c3c(=O)cc(-c4ccccc4Cl)oc23)[C@H](O)C1 [alvocidib]
How it was run: as §1

Tubastatin A = compound: CN1CCc2c(c3ccccc3n2Cc2ccc(C(=O)NO)cc2)C1 [Tubastatin A]
How it was run: as §1

[6] = compound: CNC(=O)C1=CC=CC=C1NC2=NC(=NC=C2Cl)NC3=C(C=C(C=C3)N4CCOCC4)OC
How it was run: as §1

defactinib = compound: CNC(=O)c1ccc(Nc2ncc(C(F)(F)F)c(NCc3nccnc3N(C)S(C)(=O)=O)n2)cc1 [defactinib]
How it was run: as §1

[7] = compound: CNc1nc(-c2ccc3c(N)n[nH]c3c2)cc(N2C[C@@H](C(=O)NC3CCCCC3)CC[C@H]2C)n1
How it was run: as §1

encorafenib = compound: COC(=O)N[C@@H](C)CNc1nccc(-c2cn(C(C)C)nc2-c2cc(Cl)cc(NS(C)(=O)=O)c2F)n1 [encorafenib]
How it was run: as §1

[8] = compound: COC(=O)[C@H](CCSC)NC(=O)C1=C(C=C(C=C1)NC[C@H](CS)N)C2=CC=CC=C2
How it was run: as §1

alisertib = compound: COc1cc(Nc2ncc3c(n2)-c2ccc(Cl)cc2C(c2c(F)cccc2OC)=NC3)ccc1C(=O)O [alisertib]
How it was run: as §1

[9] = compound: COc1cc2nc(-c3cc(F)ccc3O)nc(N[C@@H]3CNC[C@H]3C(C)(C)O)c2cc1OC
How it was run: as §1

gefitinib = compound: COc1cc2ncnc(Nc3ccc(F)c(Cl)c3)c2cc1OCCCN1CCOCC1 [gefitinib]
How it was run: as §1

Measured: log2 fold change

MFN1 (UniProt Q8IWA4)
inactive: vemurafenib -0.05 | [1] 0.026 | barasertib 0.069 | [2] -0.059 | volasertib 0.011 | [3] 0.045 | [4] -0.154 | [5] -0.273 | saracatinib 0.007 | sotrastaurin 0.024 | alvocidib 0.022 | Tubastatin A -0.028 | [6] 0.02 | defactinib -0.003 | [7] 0.029 | encorafenib 0 | [8] -0.298 | alisertib -0.202 | [9] -0.002 | gefitinib -0.308

MED15 (UniProt Q96RN5)
inactive: vemurafenib -0.04 | [1] -0.006 | barasertib 0.002 | [2] -0.007 | volasertib -0.004 | [3] 0.063 | [4] 0.08 | [5] 0.001 | saracatinib 0.04 | sotrastaurin -0.004 | alvocidib 0.009 | Tubastatin A -0.033 | [6] 0.017 | defactinib 0.03 | [7] -0.004 | encorafenib -0.003 | [8] -0.002 | alisertib 0.009 | [9] -0.05 | gefitinib 0

ME1 (UniProt P48163)
inactive: vemurafenib -0.034 | [1] -0.008 | barasertib -0.014 | [2] -0.011 | volasertib 0.016 | [3] 0.011 | [4] -0.025 | [5] 0.023 | saracatinib 0.013 | sotrastaurin 0.028 | alvocidib -0.002 | Tubastatin A 0.019 | [6] 0.015 | defactinib 0.037 | [7] -0.016 | encorafenib 0.014 | [8] -0.049 | alisertib -0.015 | [9] -0.008 | gefitinib 0.061

MEF2A (UniProt Q02078)
inactive: vemurafenib -0.017 | [1] 0.001 | barasertib -0.008 | [2] -0.083 | volasertib 0.045 | [3] 0.088 | [4] -0.17 | [5] 0.038 | saracatinib 0.041 | sotrastaurin -0.001 | alvocidib -0.098 | Tubastatin A -0.045 | [6] -0.022 | defactinib -0.014 | [7] -0.011 | encorafenib 0.071 | [8] 0.146 | alisertib 0.088 | [9] 0.06 | gefitinib 0.022

MDH2 (UniProt P40926)
inactive: vemurafenib -0.017 | [1] 0.023 | barasertib -0.018 | [2] 0.007 | volasertib 0.013 | [3] -0.01 | [4] 0.03 | [5] -0.01 | saracatinib -0.006 | sotrastaurin 0.011 | alvocidib 0.021 | Tubastatin A 0.02 | [6] -0.019 | defactinib -0.009 | [7] -0.016 | encorafenib -0.029 | [8] -0.021 | alisertib 0.012 | [9] -0.035 | gefitinib 0.005

MCM6 (UniProt Q14566)
inactive: vemurafenib -0.054 | [1] 0.011 | barasertib 0.001 | [2] -0.101 | volasertib -0.054 | [3] 0.018 | [4] -0.011 | [5] -0.022 | saracatinib 0.022 | sotrastaurin 0.016 | alvocidib -0.022 | Tubastatin A -0.015 | [6] 0.036 | defactinib 0.011 | [7] -0.029 | encorafenib 0.015 | [8] 0.095 | alisertib 0.036 | [9] -0.005 | gefitinib 0.015

MED30 (UniProt Q96HR3)
inactive: vemurafenib -0.041 | [1] 0.028 | barasertib 0.053 | [2] -0.032 | volasertib 0.006 | [3] 0.011 | [4] -0.002 | [5] 0.038 | saracatinib 0.014 | sotrastaurin 0.04 | alvocidib -0.004 | Tubastatin A -0.015 | [6] 0.012 | defactinib 0.083 | [7] 0.053 | encorafenib 0.003 | [8] -0.129 | alisertib -0.012 | [9] -0.012 | gefitinib 0.018

MBIP (UniProt Q9NS73)
inactive: vemurafenib 0.164 | [1] -0.018 | barasertib -0.141 | [2] 0.007 | volasertib 0.402 | [3] 0.045 | [4] -0.062 | [5] 0.017 | saracatinib 0.014 | sotrastaurin 0.063 | alvocidib -0.02 | Tubastatin A -0.034 | [6] -0.062 | defactinib -0.048 | [7] -0.042 | encorafenib 0.006 | [8] 0.13 | alisertib 0.155 | [9] -0.065 | gefitinib -0.1

Taken from the entries so far (two entries):
MEF2A (UniProt Q02078)
inactive: vemurafenib -0.017 | [1] 0.001 | barasertib -0.008 | [2] -0.083 | volasertib 0.045 | [3] 0.088 | [4] -0.17 | [5] 0.038 | saracatinib 0.041 | sotrastaurin -0.001 | alvocidib -0.098 | Tubastatin A -0.045 | [6] -0.022 | defactinib -0.014 | [7] -0.011 | encorafenib 0.071 | [8] 0.146 | alisertib 0.088 | [9] 0.06 | gefitinib 0.022

MDH2 (UniProt P40926)
inactive: vemurafenib -0.017 | [1] 0.023 | barasertib -0.018 | [2] 0.007 | volasertib 0.013 | [3] -0.01 | [4] 0.03 | [5] -0.01 | saracatinib -0.006 | sotrastaurin 0.011 | alvocidib 0.021 | Tubastatin A 0.02 | [6] -0.019 | defactinib -0.009 | [7] -0.016 | encorafenib -0.029 | [8] -0.021 | alisertib 0.012 | [9] -0.035 | gefitinib 0.005

Later entries.

MDP1 (UniProt Q86V88)
inactive: vemurafenib -0.021 | [1] -0.012 | barasertib -0.003 | [2] 0.015 | volasertib 0.058 | [3] -0.012 | [4] 0.18 | [5] -0.124 | saracatinib 0.003 | sotrastaurin 0.023 | alvocidib -0.015 | Tubastatin A 0.035 | [6] -0.019 | defactinib -0.01 | [7] -0.021 | encorafenib 0.004 | [8] -0.069 | alisertib -0.02 | [9] 0.006 | gefitinib -0.042

MED4 (UniProt Q9NPJ6)
inactive: vemurafenib 0.014 | [1] -0.003 | barasertib -0.004 | [2] 0.075 | volasertib 0.02 | [3] 0.007 | [4] -0.012 | [5] 0.071 | saracatinib -0.029 | sotrastaurin 0.017 | alvocidib -0.001 | Tubastatin A 0.03 | [6] 0.002 | defactinib 0.028 | [7] -0.015 | encorafenib 0.006 | [8] -0.076 | alisertib 0.031 | [9] 0.014 | gefitinib -0.022

MED27 (UniProt Q6P2C8)
inactive: vemurafenib 0.003 | [1] 0.008 | barasertib -0.029 | [2] 0.015 | volasertib -0.047 | [3] -0.038 | [4] 0.043 | [5] 0.001 | saracatinib 0.06 | sotrastaurin 0.039 | alvocidib -0.005 | Tubastatin A -0.064 | [6] 0.004 | defactinib 0.014 | [7] -0.005 | encorafenib 0.071 | [8] 0.032 | alisertib -0.011 | [9] 0.051 | gefitinib -0.063

MCL1 (UniProt Q07820)
inactive: vemurafenib 0.065 | [1] -0.126 | barasertib 0.105 | [2] 0.214 | volasertib -0.147 | [3] 0.018 | [4] -0.169 | [5] 0.017 | saracatinib -0.061 | sotrastaurin -0.013 | alvocidib -0.041 | Tubastatin A 0.003 | [6] -0.015 | defactinib 0.021 | [7] -0.08 | encorafenib 0.107 | [8] -0.024 | alisertib 0.057 | [9] -0.135 | gefitinib -0.085

MED10 (UniProt Q9BTT4)
inactive: vemurafenib 0.037 | [1] 0 | barasertib 0.08 | [2] 0.133 | volasertib 0.066 | [3] -0.009 | [4] 0.107 | [5] -0.059 | saracatinib 0.077 | sotrastaurin -0.015 | alvocidib 0.038 | Tubastatin A 0.041 | [6] 0.042 | defactinib 0.068 | [7] 0.045 | encorafenib 0.11 | [8] -0.185 | alisertib 0.082 | [9] -0.03 | gefitinib -0.045

MFSD1 isoform 6 (UniProt Q9H3U5)
inactive: vemurafenib 0.1 | [1] 0.006 | barasertib -0.013 | [2] -0.049 | volasertib 0.02 | [3] 0.075 | [4] -0.012 | [5] 0.062 | saracatinib 0.011 | sotrastaurin -0.035 | alvocidib 0.033 | Tubastatin A -0.052 | [6] 0.038 | defactinib -0.072 | [7] 0.028 | encorafenib 0.015 | [8] -0.029 | alisertib 0.064 | [9] -0.008 | gefitinib 0.018

MED20 (UniProt Q9H944)
inactive: vemurafenib -0.003 | [1] -0.027 | barasertib 0.061 | [2] 0.089 | volasertib 0.012 | [3] 0.097 | [4] -0.088 | [5] 0.075 | saracatinib -0.01 | sotrastaurin -0.013 | alvocidib -0.021 | Tubastatin A 0.005 | [6] 0.035 | defactinib 0.03 | [7] 0.003 | encorafenib 0.008 | [8] 0.276 | alisertib -0.012 | [9] -0.037 | gefitinib -0.039

ME3 (UniProt Q16798)
inactive: vemurafenib 0.053 | [1] -0.046 | barasertib -0.015 | [2] -0.036 | volasertib 0.008 | [3] 0.018 | [4] -0.167 | [5] 0.131 | saracatinib 0.015 | sotrastaurin 0.041 | alvocidib -0.12 | Tubastatin A -0.06 | [6] -0.105 | defactinib -0.037 | [7] -0.222 | encorafenib 0.005 | [8] 0.088 | alisertib -0.123 | [9] 0.103 | gefitinib 0.023
